Results are given in words; binding and its absence hold for the method and conditions named. Binding seen in cells or lysates may run through a third protein. Here binding means that the protein was enriched with, or labelled near, the bait; the list need not be complete. Tags and fused reporters may be left off the sequences shown.
B1: Dia2 (protein, UniProt Q08496 1-732)
chain: MSSPGNSGVAIDSTVLKAIELGTRLFKSGEYLQAKRIFTNALRVCDSYSQEQIMRIRNAYQLDTARPDNKRLYHPRYIKILDNICACYEKLNDLKSCLDVSQRLLKLEPGNIKCYIRCTRTLIKLKDWKRAYKTCSRGLQLCNNDSNHLRQQKQFIKNNMVQKQDGKRSYIDPLEETKIAKKKKNNNVLESLPKKKIKGSTKKTDLVGNLPIEILPIIFQRFTTKELVTLSLVCNKWRDKILYHLDCFQEFNLAPINFKNFVKFMDFLQQNFTRTYRKYILSQVKVSSRITSEELRITQLLFSKMPKCINIERLILSMPTLTTTQIFKLMVRGGTDFFTRLLELSLMITYRPDKQHELEILQTCPLLKKIELIFVNSLVPIFDGNNSVGRDGSFNVMARHTNMQISTADNDEQGIVEEKVIYSELEKITLICDKKKIKNFPLCRALLRGQFPLLQKLTITGVTFPMNNQDIMNFQWLLNFPDLKELWIEDNDNCELSKFLQLLKFSNVWKNLEKLTFRENKLYPIVNLDEDQPVTNDDEVPSMLFYKENLQNLEKLDLMGTSISGSALTRLCEQEYLDGRKLRSLNIGNCPNIQFPNNHAHTARMILDVNAVLKRLSKLEEINLSHLSSLNDSTMKSFIINVPFLENLKRLDISHNFEITGISIYEFLKKFQMDHDNEAGGQPLAYLNIDGCSQVSHITVNMIRAQNLVTQVDCVYERDVWRKFGINSYSYS
B2: Hrt1 (protein, UniProt Q08273 1-121)
chain: MSNEVDRMDVDEDESQNIAQSSNQSAPVETKKKRFEIKKWTAVAFWSWDIAVDNCAICRNHIMEPCIECQPKAMTDTDNECVAAWGVCNHAFHLHCINKWIKTRDACPLDNQPWQLARCGR
B3: Rrm3 (protein, UniProt P38766 1-723)
chain: MFRSHASGNKKQWSKRSSNGSTPAASASGSHAYRQQTLSSFFMGCGKKSAAASKNSTTIIDLESGDEGNRNITAPPRPRLIRNNSSSLFSQSQGSFGDDDPDAEFKKLVDVPRLNSYKKSSRSLSMTSSLHKTASASTTQKTYHFDEDETLREVTSVKSNSRQLSFTSTINIEDSSMKLSTDSERPAKRSKPSMEFQGLKLTVPKKIKPLLRKTVSNMDSMNHRSASSPVVLTMEQERVVNLIVKKRTNVFYTGSAGTGKSVILQTIIRQLSSLYGKESIAITASTGLAAVTIGGSTLHKWSGIGIGNKTIDQLVKKIQSQKDLLAAWRYTKVLIIDEISMVDGNLLDKLEQIARRIRKNDDPFGGIQLVLTGDFFQLPPVAKKDEHNVVKFCFESEMWKRCIQKTILLTKVFRQQDNKLIDILNAIRYGELTVDIAKTIRNLNRDIDYADGIAPTELYATRREVELSNVKKLQSLPGDLYEFKAVDNAPERYQAILDSSLMVEKVVALKEDAQVMMLKNKPDVELVNGSLGKVLFFVTESLVVKMKEIYKIVDDEVVMDMRLVSRVIGNPLLKESKEFRQDLNARPLARLERLKILINYAVKISPHKEKFPYVRWTVGKNKYIHELMVPERFPIDIPRENVGLERTQIPLMLCWALSIHKAQGQTIQRLKVDLRRIFEAGQVYVALSRAVTMDTLQVLNFDPGKIRTNERVKDFYKRLETLK
B4: Cka2 (protein, UniProt P19454 1-339)
chain: MPLPPSTLNQKSNRVYSVARVYKNACEERPQEYWDYEQGVTIDWGKISNYEIINKIGRGKYSEVFSGRCIVNNQKCVIKVLKPVKMKKIYRELKILTNLTGGPNVVGLYDIVQDADSKIPALIFEEIKNVDFRTLYPTFKLPDIQYYFTQLLIALDYCHSMGIMHRDVKPQNVMIDPTERKLRLIDWGLAEFYHPGVDYNVRVASRYHKGPELLVNLNQYDYSLDLWSVGCMLAAIVFKKEPFFKGSSNPDQLVKIATVLGTKELLGYLGKYGLHLPSEYDNIMRDFTKKSWTHFITSETKLAVPEVVDLIDNLLRYDHQERLTAKEAMDHKFFKTKFE
B5: Ckb1 (protein, UniProt P43639 1-278)
chain: MSQEFVEDYSRTGSSDDEDSGAYDEWIPSFCSRFGHEYFCQVPTEFIEDDFNMTSLSQEVPHYRKALDLILDLEAMSDEEEDEDDVVEEDEVDQEMQSNDGHDEGKRRNKSPVVNKSIIEHAAEQLYGLIHARFILTKPGLQAMAEKFDHKEFGTCPRYYCNGMQLLPCGLSDTVGKHTVRLYCPSCQDLYLPQSSRFLCLEGAFWGTSFPGVFLKHFKELEEYVERKSKESYELKVFGFRINDEAVSGPRMKWLRQYPSTEEDWEEFAKCEFETPAV
B6: Ckb2 (protein, UniProt P38930 1-258)
chain: MGSRSENVGTVTREGSRVEQDDVLMDDDSDSSEYVDMWIDLFLGRKGHEYFCDVDPEYITDRFNLMNLQKTVSKFSYVVQYIVDDLDDSILENMTHARLEQLESDSRKLYGLIHARYIITIKGLQKMYAKYKEADFGRCPRVYCNLQQLLPVGLHDIPGIDCVKLYCPSCEDLYIPKSSRHSSIDGAYFGTSFPGMFLQAFPDMVPKHPTKRYVPKIFGFELHKQAQLTRWQELQRLKLVEKLESKDVDLTKSGGFKT
B7: Rad5 (protein, UniProt P32849 1-1169)
chain: MSHIEQEERKRFFNDDLDTSETSLNFKSENKESFLFANSHNDDDDDVVVSVSDTTEGEGDRSIVPVRREIEEEGQNQFITELLRIIPEMPKDLVMELNEKFGSQEEGLSLALSHYFDHNSGTSISKIPSSPNQLNTLSDTSNSTLSPSSFHPKRRRIYGFRNQTRLEDKVTWKRFIGALQVTGMATRPTVRPLKYGSQMKLKRSSEEISATKVYDSRGRKKASMASLVRIFDIQYDREIGRVSEDIAQILYPLLSSHEISFEVTLIFCDNKRLSIGDSFILQLDCFLTSLIFEERNDGESLMKRRRTEGGNKREKDNGNFGRTLTETDEELESRSKRLALLKLFDKLRLKPILDEQKALEKHKIELNSDPEIIDLDNDEICSNQVTEVHNNLRDTQHEEETMNLNQLKTFYKAAQSSESLKSLPETEPSRDVFKLELRNYQKQGLTWMLRREQEFAKAASDGEASETGANMINPLWKQFKWPNDMSWAAQNLQQDHVNVEDGIFFYANLHSGEFSLAKPILKTMIKGGILSDEMGLGKTVAAYSLVLSCPHDSDVVDKKLFDIENTAVSDNLPSTWQDNKKPYASKTTLIVVPMSLLTQWSNEFTKANNSPDMYHEVYYGGNVSSLKTLLTKTKTPPTVVLTTYGIVQNEWTKHSKGRMTDEDVNISSGLFSVNFYRIIIDEGHNIRNRTTVTSKAVMALQGKCKWVLTGTPIINRLDDLYSLVKFLELDPWRQINYWKTFVSTPFESKNYKQAFDVVNAILEPVLLRRTKQMKDKDGKPLVELPPKEVVIKRLPFSKSQDLLYKFLLDKAEVSVKSGIARGDLLKKYSTILVHILRLRQVCCHPGLIGSQDENDEDLSKNNKLVTEQTVELDSLMRVVSERFDNSFSKEELDAMIQRLKVKYPDNKSFQSLECSICTTEPMDLDKALFTECGHSFCEKCLFEYIEFQNSKNLGLKCPNCRNQIDACRLLALVQTNSNSKNLEFKPYSPASKSSKITALLKELQLLQDSSAGEQVVIFSQFSTYLDILEKELTHTFSKDVAKIYKFDGRLSLKERTSVLADFAVKDYSRQKILLLSLKAGGVGLNLTCASHAYMMDPWWSPSMEDQAIDRLHRIGQTNSVKVMRFIIQDSIEEKMLRIQEKKRTIGEAMDTDEDERRKRRIEEIQMLFE
B8: Smc1 (protein, UniProt P32908 1-1225)
chain: MGRLVGLELSNFKSYRGVTKVGFGESNFTSIIGPNGSGKSNMMDAISFVLGVRSNHLRSNILKDLIYRGVLNDENSDDYDNEGAASSNPQSAYVKAFYQKGNKLVELMRIISRNGDTSYKIDGKTVSYKDYSIFLENENILIKAKNFLVFQGDVEQIAAQSPVELSRMFEEVSGSIQYKKEYEELKEKIEKLSKSATESIKNRRRIHGELKTYKEGINKNEEYRKQLDKKNELQKFQALWQLYHLEQQKEELTDKLSALNSEISSLKGKINNEMKSLQRSKSSFVKESAVISKQKSKLDYIFKDKEKLVSDLRLIKVPQQAAGKRISHIEKRIESLQKDLQRQKTYVERFETQLKVVTRSKEAFEEEIKQSARNYDKFKLNENDLKTYNCLHEKYLTEGGSILEEKIAVLNNDKREIQEELERFNKRADISKRRITEELSITGEKLDTQLNDLRVSLNEKNALHTERLHELKKLQSDIESANNQEYDLNFKLRETLVKIDDLSANQRETMKERKLRENIAMLKRFFPGVKGLVHDLCHPKKEKYGLAVSTILGKNFDSVIVENLTVAQECIAFLKKQRAGTASFIPLDTIETELPTLSLPDSQDYILSINAIDYEPEYEKAMQYVCGDSIICNTLNIAKDLKWKKGIRGKLVTIEGALIHKAGLMTGGISGDANNRWDKEEYQSLMSLKDKLLIQIDELSNGQRSNSIRAREVENSVSLLNSDIANLRTQVTQQKRSLDENRLEIKYHNDLIEKEIQPKITELKKKLDDLENTKDNLVKEKEALQNNIFKEFTSKIGFTIKEYENHSGELMRQQSKELQQLQKQILTVENKLQFETDRLSTTQRRYEKAQKDLENAQVEMKSLEEQEYAIEMKIGSIESKLEEHKNHLDELQKKFVTKQSELNSSEDILEDMNSNLQVLKRERDGIKEDIEKFDLERVTALKNCKISNINIPISSETTIDDLPISSTDNEAITISNSIDINYKGLPKKYKENNTDSARKELEQKIHEVEEILNELQPNARALERYDEAEGRFEVINNETEQLKAEEKKILNQFLKIKKKRKELFEKTFDYVSDHLDAIYRELTKNPNSNVELAGGNASLTIEDEDEPFNAGIKYHATPPLKRFKDMEYLSGGEKTVAALALLFAINSYQPSPFFVLDEVDAALDITNVQRIAAYIRRHRNPDLQFIVISLKNTMFEKSDALVGVYRQQQENSSKIITLDLSNYAE

Biological target: T1, Mrc1-YFP (S. cerevisiae) (UniProt P25588)
T1 sequence: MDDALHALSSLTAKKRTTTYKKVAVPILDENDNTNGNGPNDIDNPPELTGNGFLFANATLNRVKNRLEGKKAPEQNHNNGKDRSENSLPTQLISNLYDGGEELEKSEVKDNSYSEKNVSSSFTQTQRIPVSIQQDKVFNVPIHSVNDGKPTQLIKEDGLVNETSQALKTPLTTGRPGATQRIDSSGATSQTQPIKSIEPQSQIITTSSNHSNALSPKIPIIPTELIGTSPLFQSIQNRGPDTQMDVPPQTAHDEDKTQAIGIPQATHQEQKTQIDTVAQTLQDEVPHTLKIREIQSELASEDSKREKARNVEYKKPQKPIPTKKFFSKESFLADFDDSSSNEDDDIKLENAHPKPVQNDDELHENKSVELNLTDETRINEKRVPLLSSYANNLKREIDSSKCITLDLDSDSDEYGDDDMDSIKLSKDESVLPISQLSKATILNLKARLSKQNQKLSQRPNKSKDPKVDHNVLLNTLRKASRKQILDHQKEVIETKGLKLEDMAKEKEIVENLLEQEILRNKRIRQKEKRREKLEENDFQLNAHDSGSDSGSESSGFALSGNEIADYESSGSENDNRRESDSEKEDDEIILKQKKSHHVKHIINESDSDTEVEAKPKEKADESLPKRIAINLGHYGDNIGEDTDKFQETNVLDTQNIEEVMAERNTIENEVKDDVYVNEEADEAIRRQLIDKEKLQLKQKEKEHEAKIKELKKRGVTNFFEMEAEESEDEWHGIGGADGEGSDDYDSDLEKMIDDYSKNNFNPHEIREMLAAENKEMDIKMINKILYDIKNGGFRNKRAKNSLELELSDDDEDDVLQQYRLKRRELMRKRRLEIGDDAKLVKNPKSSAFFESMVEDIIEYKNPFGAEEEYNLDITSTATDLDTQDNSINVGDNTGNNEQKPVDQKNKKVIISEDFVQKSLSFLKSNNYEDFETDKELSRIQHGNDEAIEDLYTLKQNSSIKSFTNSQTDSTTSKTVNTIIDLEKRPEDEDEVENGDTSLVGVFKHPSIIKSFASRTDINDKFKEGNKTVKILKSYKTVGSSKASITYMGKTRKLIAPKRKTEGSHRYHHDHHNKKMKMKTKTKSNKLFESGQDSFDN
Assay: affinity purification with mass spectrometry

binding, binds:
B1
B2
B3
B4
B5
B6
B7
B8

Source: article doi:10.1101/2021.09.16.460581
